The values that follow come from publication PMC4006739.

What all share (assay): pull-down; purified GST::ERM-1 fusion proteins on glutathione-sepharose beads incubated with 500 µg total protein worm extracts (wild type, lin-7(e1413) or let-23(sy1)); bound LET-23 detected on anti-LET-23 Western blots; only the target purified
For orientation: Immunoblotting shows a protein as a band on a membrane.

Test [1] has as its target GST::ERM-1 FERM domain (construct not named for this experiment) (C. elegans).
Test [2] addresses GST::ERM-1_(1–100) (C. elegans).
In test [3] the target is GST::ERM-1_(1–167) (C. elegans).
Test [4] addresses GST::ERM-1_(1–240) (C. elegans).
Test [5] deals with GST::ERM-1_(1–311) (C. elegans).
Test [6] addresses GST::ERM-1_(312–564) (C. elegans).

These are yes or no findings as the source states them, for the method shown. Binding seen in cells or lysates may run through a third protein. For part of these data: A result given as binding can be weak or reduced; the word gives no strength.

B1: LET-23 EGFR (receptor, UniProt P24348 21-1323)
chain: FGNSNAQLWKRCVSPQDCLCSGTTNGISRYGTGNILEDLETMYRGCRRVYGNLEITWIEANEIKKWRESTNSTVDPKNEDSPLKSINFFDNLEEIRGSLIIYRANIQKISFPRLRVIYGDEVFHDNALYIHKNDKVHEVVMRELRVIRNGSVTIQDNPKMCYIGDKIDWKELLYDPDVQKVETTNSHQHCYQNGKSMAKCHESCNDKCWGSGDNDCQRVYRSVCPKSCSQCFYSNSTSSYECCDSACLGGCTGHGPKNCIACSKYELDGICIETCPSRKIFNHKTGRLVFNPDGRYQNGNHCVKECPPELLIENDVCVRHCSDGHHYDATKDVRECEKCRSSSCPKICTVDGHLTNETLKNLEGCEQIDGHLIIEHAFTYEQLKVLETVKIVSEYITIVQQNFYDLKFLKNLQIIEGRKLHNVRWALAIYQCDDLEELSLNSLKLIKTGAVLIMKNHRLCYVSKIDWSSIITSKGKDNKPSLAIAENRDSKLCETEQRVCDKNCNKRGCWGKEPEDCLECKTWKSVGTCVEKCDTKGFLRNQTSMKCERCSPECETCNGLGELDCLTCRHKTLYNSDFGNRMECVHDCPVSHFPTQKNVCEKCHPTCYDNGCTGPDSNLGYGGCKQCKYAVKYENDTIFCLQSSGMNNVCVENDLPNYYISTYDTEGVIETHCEKCSISCKTCSSAGRNVVQNKCVCKHVEYQPNPSERICMDQCPVNSFMVPDTNNTVCKKCHHECDQNYHCANGQSTGCQKCKNFTVFKGDIAQCVSECPKNLPFSNPANGECLDYDIASRQRKTRMVIIGSVLFGFAVMFLFILLVYWRCQRIGKKLKIAEMVDMPELTPIDASVRPNMSRICLIPSSELQTKLDKKLGAGAFGTVFAGIYYPKRAKNVKIPVAIKVFQTDQSQTDEMLEEATNMFRLRHDNLLKIIGFCMHDDGLKIVTIYRPLGNLQNFLKLHKENLGAREQVLYCYQIASGMQYLEKQRVVHRDLATRNVLVKKFNHVEITDFGLSKILKHDADSITIKSGKVAIKWLAIEIFSKHCYTHASDVWAFGVTCWEIITFGQSPYQGMSTDSIHNFLKDGNRLSQPPNCSQDLYQELLRCWMADPKSRPGFEILYERFKEFCKVPQLFLENSNKISESDLSAEERFQTERIREMFDGNIDPQMYFDQGSLPSMPSSPTSMATFTIPHGDLMNRMQSVNSSRYKTEPFDYGSTAQEDNSYLIPKTKEVQQSAVLYTAVTNEDGQTELSPSNGDYYNQPNTPSSSSGYYNEPHLKTKKPETSEEAEAVQYENEEVSQKETCL
On to B1, for which the binding entry is recorded as “binds” in test [1]; “no binding” in test [2]; “no binding” in test [3]; “binds” in test [4]; “binds” in test [5]; “no binding” in test [6].
